The target in test [1] is T1, ALFA-Lcb1 (S. cerevisiae) (UniProt P25045).
T1 sequence: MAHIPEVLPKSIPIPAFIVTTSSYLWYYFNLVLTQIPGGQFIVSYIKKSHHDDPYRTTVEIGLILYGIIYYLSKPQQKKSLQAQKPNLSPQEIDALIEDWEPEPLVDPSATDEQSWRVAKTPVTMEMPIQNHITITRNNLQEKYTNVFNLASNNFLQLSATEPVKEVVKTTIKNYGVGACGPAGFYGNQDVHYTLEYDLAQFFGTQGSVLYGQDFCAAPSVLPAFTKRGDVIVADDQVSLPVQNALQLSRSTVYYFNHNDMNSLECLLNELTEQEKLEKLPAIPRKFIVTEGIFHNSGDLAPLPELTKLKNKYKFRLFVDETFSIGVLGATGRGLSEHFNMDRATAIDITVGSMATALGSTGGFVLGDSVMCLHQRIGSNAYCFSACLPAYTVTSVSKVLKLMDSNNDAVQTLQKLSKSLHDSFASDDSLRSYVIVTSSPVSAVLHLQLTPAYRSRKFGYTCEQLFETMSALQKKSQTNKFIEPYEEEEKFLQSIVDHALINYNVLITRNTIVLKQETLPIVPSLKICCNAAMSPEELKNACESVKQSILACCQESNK
The experiment in a line: co-IP.

Amino acid sequences for entries named in this document (tags omitted).
UniProt P53224: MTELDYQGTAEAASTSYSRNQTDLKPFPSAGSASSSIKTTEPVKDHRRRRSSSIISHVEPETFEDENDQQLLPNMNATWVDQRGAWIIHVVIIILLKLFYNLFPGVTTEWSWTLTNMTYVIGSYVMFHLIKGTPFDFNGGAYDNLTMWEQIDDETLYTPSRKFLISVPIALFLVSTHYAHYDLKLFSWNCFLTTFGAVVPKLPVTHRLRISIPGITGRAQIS

Test [2] deals with T2, Lcb1 with an internal 3xFLAG epitope inserted after P9 (S. cerevisiae) (UniProt P25045).
T2 sequence: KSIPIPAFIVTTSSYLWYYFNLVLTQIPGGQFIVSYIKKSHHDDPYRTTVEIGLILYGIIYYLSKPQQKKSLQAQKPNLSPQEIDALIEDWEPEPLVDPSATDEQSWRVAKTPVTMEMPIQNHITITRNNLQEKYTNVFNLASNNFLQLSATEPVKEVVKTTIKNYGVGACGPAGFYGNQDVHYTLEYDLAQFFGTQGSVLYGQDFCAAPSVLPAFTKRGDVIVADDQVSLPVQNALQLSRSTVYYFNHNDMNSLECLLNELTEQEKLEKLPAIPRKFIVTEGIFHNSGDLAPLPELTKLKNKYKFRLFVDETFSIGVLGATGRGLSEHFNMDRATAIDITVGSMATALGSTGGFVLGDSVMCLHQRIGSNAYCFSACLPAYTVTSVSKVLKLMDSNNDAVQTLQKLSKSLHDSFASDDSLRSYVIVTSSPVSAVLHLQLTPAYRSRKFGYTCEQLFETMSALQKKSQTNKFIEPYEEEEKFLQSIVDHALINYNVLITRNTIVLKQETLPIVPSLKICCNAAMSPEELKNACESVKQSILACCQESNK
The experiment in a line: cryo-EM structure.

A further test concerns the target T3, Tsc3 (S. cerevisiae) (UniProt Q3E790).
T3 sequence: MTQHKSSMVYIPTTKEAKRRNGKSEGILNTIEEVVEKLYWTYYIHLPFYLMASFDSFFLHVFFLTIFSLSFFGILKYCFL
The experiment in a line: cryo-EM structure.

Test [3] addresses T2, Lcb1 with an internal 3xFLAG epitope inserted after P9 (S. cerevisiae). The experiment in a line: co-IP.

No constants are given. Whether binding was seen depends on the method and setting. For part of these data: Binding seen in cells or lysates may run through a third protein. Some results given as binding are weak or reduced against the parent protein; the word gives no strength. For part of these data: Tags and fused reporters may be left off the sequences shown.

For “Orm1 (endogenous, untagged) (from UniProt P53224 1-222)”, in test [1], the binding result is reported as “binds”.
As for “N-terminally 3xFLAG-tagged Orm1 (from UniProt P53224 1-222)”, the binding result in test [1] is listed as “binds”.

B1: N-terminally 3xFLAG-tagged Orm2 (protein, UniProt Q06144 1-216)
chain: MIDRTKNESPAFEESPLTPNVSNLKPFPSQSNKISTPVTDHRRRRSSSVISHVEQETFEDENDQQMLPNMNATWVDQRGAWLIHIVVIVLLRLFYSLFGSTPKWTWTLTNMTYIIGFYIMFHLVKGTPFDFNGGAYDNLTMWEQINDETLYTPTRKFLLIVPIVLFLISNQYYRNDMTLFLSNLAVTVLIGVVPKLGITHRLRISIPGITGRAQIS
Regarding B1, the binding result in test [1] is recorded as “binds”.

B2: Orm2^3A (non-phosphorylatable Orm2 mutant, S46A S47A S48A) (protein, UniProt Q06144 1-216)
chain: MIDRTKNESPAFEESPLTPNVSNLKPFPSQSNKISTPVTDHRRRRAAAVISHVEQETFEDENDQQMLPNMNATWVDQRGAWLIHIVVIVLLRLFYSLFGSTPKWTWTLTNMTYIIGFYIMFHLVKGTPFDFNGGAYDNLTMWEQINDETLYTPTRKFLLIVPIVLFLISNQYYRNDMTLFLSNLAVTVLIGVVPKLGITHRLRISIPGITGRAQIS
As to B2, the binding result in test [2] was “binds”; in the test with Tsc3 (S. cerevisiae), “no binding”.

B3: Orm2 (endogenous, untagged) (protein, UniProt Q06144 1-216)
chain: MIDRTKNESPAFEESPLTPNVSNLKPFPSQSNKISTPVTDHRRRRSSSVISHVEQETFEDENDQQMLPNMNATWVDQRGAWLIHIVVIVLLRLFYSLFGSTPKWTWTLTNMTYIIGFYIMFHLVKGTPFDFNGGAYDNLTMWEQINDETLYTPTRKFLLIVPIVLFLISNQYYRNDMTLFLSNLAVTVLIGVVPKLGITHRLRISIPGITGRAQIS
On to B3, for which the binding entry in test [1] is recorded as “binds”.

B4: Orm2^3D (phospho-mimetic Orm2 mutant, S46-48 to aspartate) (protein, UniProt Q06144 1-216)
chain: MIDRTKNESPAFEESPLTPNVSNLKPFPSQSNKISTPVTDHRRRRDDDVISHVEQETFEDENDQQMLPNMNATWVDQRGAWLIHIVVIVLLRLFYSLFGSTPKWTWTLTNMTYIIGFYIMFHLVKGTPFDFNGGAYDNLTMWEQINDETLYTPTRKFLLIVPIVLFLISNQYYRNDMTLFLSNLAVTVLIGVVPKLGITHRLRISIPGITGRAQIS
For B4, the binding result in test [3] was “binds”.

B5: Lcb2 (enzyme, UniProt P40970 1-561)
chain: MSTPANYTRVPLCEPEELPDDIQKENEYGTLDSPGHLYQVKSRHGKPLPEPVVDTPPYYISLLTYLNYLILIILGHVHDFLGMTFQKNKHLDLLEHDGLAPWFSNFESFYVRRIKMRIDDCFSRPTTGVPGRFIRCIDRISHNINEYFTYSGAVYPCMNLSSYNYLGFAQSKGQCTDAALESVDKYSIQSGGPRAQIGTTDLHIKAEKLVARFIGKEDALVFSMGYGTNANLFNAFLDKKCLVISDELNHTSIRTGVRLSGAAVRTFKHGDMVGLEKLIREQIVLGQPKTNRPWKKILICAEGLFSMEGTLCNLPKLVELKKKYKCYLFIDEAHSIGAMGPTGRGVCEIFGVDPKDVDILMGTFTKSFGAAGGYIAADQWIIDRLRLDLTTVSYSESMPAPVLAQTISSLQTISGEICPGQGTERLQRIAFNSRYLRLALQRLGFIVYGVADSPVIPLLLYCPSKMPAFSRMMLQRRIAVVVVAYPATPLIESRVRFCMSASLTKEDIDYLLRHVSEVGDKLNLKSNSGKSSYDGKRQRWDIEEVIRRTPEDCKDDKYFVN
modifications: PLP covalently bound to the ε-amino group of K366 as an internal aldimine
Regarding B5, the binding entry in test [2] is reported as “binds”.

B6: Lcb1 with an internal 3xFLAG epitope inserted after P9 (enzyme, UniProt P25045 10-558)
chain: KSIPIPAFIVTTSSYLWYYFNLVLTQIPGGQFIVSYIKKSHHDDPYRTTVEIGLILYGIIYYLSKPQQKKSLQAQKPNLSPQEIDALIEDWEPEPLVDPSATDEQSWRVAKTPVTMEMPIQNHITITRNNLQEKYTNVFNLASNNFLQLSATEPVKEVVKTTIKNYGVGACGPAGFYGNQDVHYTLEYDLAQFFGTQGSVLYGQDFCAAPSVLPAFTKRGDVIVADDQVSLPVQNALQLSRSTVYYFNHNDMNSLECLLNELTEQEKLEKLPAIPRKFIVTEGIFHNSGDLAPLPELTKLKNKYKFRLFVDETFSIGVLGATGRGLSEHFNMDRATAIDITVGSMATALGSTGGFVLGDSVMCLHQRIGSNAYCFSACLPAYTVTSVSKVLKLMDSNNDAVQTLQKLSKSLHDSFASDDSLRSYVIVTSSPVSAVLHLQLTPAYRSRKFGYTCEQLFETMSALQKKSQTNKFIEPYEEEEKFLQSIVDHALINYNVLITRNTIVLKQETLPIVPSLKICCNAAMSPEELKNACESVKQSILACCQESNK
As to B6, the binding result in test [2] was “binds”.
